Data taken from the supplement of paper PMC10849652.
The list shows a part of the results.

Amino acid sequences for entries named in this document (tags omitted). A change or cut given only in a name is not applied to a line headed by its entry.
UniProt P52895: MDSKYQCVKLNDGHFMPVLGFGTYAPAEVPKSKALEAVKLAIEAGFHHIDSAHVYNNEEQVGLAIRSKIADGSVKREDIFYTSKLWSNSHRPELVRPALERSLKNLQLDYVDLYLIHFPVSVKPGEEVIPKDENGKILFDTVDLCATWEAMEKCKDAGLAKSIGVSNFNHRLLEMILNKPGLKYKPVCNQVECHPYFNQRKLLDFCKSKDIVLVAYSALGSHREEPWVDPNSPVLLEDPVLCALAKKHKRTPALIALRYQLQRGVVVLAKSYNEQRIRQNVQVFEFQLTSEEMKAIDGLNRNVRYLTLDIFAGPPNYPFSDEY
UniProt P54886: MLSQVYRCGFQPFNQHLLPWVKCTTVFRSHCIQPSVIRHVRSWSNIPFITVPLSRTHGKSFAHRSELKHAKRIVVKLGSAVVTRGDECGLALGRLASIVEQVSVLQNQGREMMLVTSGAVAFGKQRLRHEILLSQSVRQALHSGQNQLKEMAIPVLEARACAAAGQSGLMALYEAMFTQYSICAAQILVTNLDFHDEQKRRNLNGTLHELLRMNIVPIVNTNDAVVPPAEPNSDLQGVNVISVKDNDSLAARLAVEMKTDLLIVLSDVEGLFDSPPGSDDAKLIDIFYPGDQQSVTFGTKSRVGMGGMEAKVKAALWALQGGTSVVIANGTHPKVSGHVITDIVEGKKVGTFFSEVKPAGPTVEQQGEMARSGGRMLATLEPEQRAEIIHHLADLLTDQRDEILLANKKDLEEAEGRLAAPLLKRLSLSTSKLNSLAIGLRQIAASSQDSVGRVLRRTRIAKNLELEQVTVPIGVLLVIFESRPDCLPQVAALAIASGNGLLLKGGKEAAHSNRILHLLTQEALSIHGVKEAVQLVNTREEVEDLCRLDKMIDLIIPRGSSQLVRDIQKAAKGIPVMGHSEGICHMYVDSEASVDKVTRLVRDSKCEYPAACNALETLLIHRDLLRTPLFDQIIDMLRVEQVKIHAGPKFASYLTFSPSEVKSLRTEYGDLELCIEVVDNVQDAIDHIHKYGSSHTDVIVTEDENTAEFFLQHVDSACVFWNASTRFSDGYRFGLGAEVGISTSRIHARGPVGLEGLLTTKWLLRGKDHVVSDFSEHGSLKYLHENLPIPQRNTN
UniProt P35612: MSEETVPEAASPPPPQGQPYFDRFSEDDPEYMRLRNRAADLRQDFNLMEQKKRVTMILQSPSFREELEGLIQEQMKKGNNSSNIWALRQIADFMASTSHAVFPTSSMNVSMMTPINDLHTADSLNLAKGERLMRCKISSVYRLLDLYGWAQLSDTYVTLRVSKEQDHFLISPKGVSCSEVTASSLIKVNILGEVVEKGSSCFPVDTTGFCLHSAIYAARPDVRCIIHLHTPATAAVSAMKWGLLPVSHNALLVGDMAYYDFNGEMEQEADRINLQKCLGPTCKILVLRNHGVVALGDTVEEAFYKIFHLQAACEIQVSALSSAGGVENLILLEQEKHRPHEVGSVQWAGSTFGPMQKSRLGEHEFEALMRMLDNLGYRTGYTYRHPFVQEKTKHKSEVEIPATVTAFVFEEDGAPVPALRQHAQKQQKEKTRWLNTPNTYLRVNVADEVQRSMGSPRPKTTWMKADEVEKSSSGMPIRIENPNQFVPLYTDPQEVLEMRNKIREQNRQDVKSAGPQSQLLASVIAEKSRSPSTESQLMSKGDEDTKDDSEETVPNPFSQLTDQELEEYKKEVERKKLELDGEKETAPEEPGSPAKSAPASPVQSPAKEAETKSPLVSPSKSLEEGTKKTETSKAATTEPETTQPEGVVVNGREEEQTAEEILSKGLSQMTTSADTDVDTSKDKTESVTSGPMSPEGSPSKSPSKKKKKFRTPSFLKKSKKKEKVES
UniProt O00170: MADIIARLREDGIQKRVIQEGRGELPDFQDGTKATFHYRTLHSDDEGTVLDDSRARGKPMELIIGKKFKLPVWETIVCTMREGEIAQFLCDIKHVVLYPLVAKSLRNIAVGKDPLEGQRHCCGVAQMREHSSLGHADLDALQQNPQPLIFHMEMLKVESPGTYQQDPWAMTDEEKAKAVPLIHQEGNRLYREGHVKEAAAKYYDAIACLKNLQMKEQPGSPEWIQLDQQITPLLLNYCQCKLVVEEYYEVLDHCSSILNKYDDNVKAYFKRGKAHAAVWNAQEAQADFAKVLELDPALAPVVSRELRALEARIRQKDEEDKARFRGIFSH
UniProt Q02252: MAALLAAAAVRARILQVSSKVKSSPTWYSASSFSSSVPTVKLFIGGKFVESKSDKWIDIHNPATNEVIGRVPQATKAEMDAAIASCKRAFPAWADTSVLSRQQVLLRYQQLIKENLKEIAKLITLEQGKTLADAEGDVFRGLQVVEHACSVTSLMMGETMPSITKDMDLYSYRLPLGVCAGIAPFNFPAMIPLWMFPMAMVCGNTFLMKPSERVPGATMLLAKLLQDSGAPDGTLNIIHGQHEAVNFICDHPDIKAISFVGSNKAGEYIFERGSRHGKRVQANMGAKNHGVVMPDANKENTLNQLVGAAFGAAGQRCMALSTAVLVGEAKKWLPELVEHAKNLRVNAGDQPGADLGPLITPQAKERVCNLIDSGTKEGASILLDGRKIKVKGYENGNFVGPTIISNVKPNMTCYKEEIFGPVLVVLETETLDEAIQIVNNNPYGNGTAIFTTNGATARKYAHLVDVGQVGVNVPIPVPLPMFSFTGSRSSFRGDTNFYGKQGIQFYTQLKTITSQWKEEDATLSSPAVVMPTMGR
UniProt Q8WV93: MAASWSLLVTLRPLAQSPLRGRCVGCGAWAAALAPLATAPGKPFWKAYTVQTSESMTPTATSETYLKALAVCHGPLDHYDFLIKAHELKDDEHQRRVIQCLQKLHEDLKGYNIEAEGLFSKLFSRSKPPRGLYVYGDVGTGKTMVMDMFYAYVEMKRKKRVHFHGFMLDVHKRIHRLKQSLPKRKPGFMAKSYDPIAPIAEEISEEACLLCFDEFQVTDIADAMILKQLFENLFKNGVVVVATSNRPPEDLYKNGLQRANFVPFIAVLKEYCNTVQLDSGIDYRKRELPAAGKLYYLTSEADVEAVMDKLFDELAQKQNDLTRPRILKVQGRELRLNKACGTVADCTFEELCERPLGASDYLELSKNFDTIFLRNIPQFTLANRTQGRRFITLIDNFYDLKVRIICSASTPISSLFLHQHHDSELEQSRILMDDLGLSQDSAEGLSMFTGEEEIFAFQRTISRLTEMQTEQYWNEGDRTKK
UniProt Q96BT7: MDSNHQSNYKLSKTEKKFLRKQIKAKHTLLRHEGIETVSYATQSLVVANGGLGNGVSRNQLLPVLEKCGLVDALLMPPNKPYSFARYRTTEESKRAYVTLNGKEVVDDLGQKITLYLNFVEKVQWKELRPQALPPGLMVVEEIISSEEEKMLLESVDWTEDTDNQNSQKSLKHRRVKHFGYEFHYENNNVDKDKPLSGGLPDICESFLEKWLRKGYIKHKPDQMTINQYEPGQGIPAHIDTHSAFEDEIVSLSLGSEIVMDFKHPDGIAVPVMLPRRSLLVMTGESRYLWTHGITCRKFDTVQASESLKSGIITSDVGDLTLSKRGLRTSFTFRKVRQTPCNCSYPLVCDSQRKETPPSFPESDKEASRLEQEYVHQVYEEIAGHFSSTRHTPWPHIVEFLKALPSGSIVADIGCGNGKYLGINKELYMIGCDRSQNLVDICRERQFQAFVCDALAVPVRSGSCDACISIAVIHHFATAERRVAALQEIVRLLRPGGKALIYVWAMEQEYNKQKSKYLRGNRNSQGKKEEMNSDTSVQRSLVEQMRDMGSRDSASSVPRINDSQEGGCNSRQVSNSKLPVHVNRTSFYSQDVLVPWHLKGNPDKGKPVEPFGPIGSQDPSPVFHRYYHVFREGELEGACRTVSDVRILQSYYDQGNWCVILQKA
UniProt P31751: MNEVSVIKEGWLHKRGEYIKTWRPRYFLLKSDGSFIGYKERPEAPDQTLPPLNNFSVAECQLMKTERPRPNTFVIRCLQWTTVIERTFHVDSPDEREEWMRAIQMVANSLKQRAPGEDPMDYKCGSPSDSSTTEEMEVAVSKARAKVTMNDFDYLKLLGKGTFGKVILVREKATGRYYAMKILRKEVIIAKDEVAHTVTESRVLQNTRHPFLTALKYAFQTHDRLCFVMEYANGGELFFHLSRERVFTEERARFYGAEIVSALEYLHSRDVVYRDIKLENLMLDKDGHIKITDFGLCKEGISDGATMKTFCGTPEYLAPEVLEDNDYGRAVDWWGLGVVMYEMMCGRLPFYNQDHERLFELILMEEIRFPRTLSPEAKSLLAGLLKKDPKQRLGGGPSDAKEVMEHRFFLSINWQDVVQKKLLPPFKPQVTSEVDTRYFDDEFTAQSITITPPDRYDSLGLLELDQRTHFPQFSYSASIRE
UniProt O00468: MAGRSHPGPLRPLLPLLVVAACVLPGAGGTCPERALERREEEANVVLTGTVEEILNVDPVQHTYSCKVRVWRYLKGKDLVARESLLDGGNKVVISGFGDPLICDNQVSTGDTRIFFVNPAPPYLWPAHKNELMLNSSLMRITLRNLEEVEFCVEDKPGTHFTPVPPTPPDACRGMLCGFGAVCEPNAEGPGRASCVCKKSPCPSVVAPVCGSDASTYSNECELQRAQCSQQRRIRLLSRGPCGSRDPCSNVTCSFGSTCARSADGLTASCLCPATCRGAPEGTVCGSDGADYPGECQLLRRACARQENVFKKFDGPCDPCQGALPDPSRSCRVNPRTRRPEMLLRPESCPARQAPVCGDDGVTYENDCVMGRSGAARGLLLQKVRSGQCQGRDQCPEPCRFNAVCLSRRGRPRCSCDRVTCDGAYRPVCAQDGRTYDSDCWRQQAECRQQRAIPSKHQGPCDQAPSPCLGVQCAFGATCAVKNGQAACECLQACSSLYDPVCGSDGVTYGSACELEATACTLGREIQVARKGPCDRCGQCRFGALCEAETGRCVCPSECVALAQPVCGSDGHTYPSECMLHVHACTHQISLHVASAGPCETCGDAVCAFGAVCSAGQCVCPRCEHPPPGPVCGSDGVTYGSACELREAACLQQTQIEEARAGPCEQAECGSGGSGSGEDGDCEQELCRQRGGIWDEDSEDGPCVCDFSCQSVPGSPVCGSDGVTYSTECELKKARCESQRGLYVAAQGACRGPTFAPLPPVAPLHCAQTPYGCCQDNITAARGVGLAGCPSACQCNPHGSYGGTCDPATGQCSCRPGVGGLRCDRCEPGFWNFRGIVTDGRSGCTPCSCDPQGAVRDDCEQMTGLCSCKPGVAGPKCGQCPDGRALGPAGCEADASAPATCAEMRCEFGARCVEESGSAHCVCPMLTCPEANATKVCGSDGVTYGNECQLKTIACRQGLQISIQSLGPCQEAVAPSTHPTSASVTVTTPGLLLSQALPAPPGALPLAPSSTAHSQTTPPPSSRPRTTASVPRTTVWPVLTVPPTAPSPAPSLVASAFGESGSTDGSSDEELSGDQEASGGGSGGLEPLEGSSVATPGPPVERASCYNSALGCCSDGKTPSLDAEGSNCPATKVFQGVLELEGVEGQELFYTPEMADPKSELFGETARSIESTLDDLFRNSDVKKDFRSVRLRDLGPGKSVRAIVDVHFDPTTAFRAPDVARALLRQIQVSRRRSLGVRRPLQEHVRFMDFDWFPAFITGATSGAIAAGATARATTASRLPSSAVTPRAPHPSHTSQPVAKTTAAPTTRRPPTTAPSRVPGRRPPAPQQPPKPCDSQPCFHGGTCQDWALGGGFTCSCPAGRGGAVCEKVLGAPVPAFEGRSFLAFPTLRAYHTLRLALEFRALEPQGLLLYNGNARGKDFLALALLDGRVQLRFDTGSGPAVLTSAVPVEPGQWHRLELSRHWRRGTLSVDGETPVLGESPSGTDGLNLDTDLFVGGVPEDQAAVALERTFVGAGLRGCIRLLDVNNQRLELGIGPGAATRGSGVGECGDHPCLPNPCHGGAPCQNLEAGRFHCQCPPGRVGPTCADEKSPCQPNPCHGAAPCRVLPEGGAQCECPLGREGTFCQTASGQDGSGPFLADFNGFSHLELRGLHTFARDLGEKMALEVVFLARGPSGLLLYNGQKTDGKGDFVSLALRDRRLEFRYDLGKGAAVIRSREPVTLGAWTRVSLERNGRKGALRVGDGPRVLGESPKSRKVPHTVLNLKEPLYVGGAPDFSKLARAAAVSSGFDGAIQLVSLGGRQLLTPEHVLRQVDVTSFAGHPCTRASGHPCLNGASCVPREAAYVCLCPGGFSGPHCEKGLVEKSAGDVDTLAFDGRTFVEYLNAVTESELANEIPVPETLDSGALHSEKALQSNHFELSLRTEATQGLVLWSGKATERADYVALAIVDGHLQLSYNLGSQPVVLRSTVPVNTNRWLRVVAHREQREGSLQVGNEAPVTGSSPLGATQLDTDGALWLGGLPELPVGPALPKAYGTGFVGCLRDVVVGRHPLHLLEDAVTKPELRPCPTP

Tests used:
Assay in all cases: log2 fold change, soluble protein after heating vs DMSO (PISA); higher = thermal stabilisation; K562 cells, 10 uM, 30 min; active = over 0.2 and 3.5 SD of the protein, either way, in both replicates (recomputed)
[1] = compound: CN1CCN(CCOc2cc(OC3CCOCC3)c3c(Nc4c(Cl)ccc5c4OCO5)ncnc3c2)CC1 [saracatinib]
Summary of the method: (§1)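 K562 cells at 2×10^6 cells/mL were treated for 30 min with 10 μM compound, and aliquots were heated for 3 min over 48°C-58°C before pooling. Extraction used PBS with 0.5% NP-40 at 4°C, and soluble protein was the supernatant after 21,000xg for 90 min, measured by TMTpro 16plex LC-MS/MS with channel sums equalised. Thermal stability values, relative to control samples and from duplicates, are log2 fold changes.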

[2] = compound: CN1CCN(c2nc(C3=C(c4c[nH]c5ccccc45)C(=O)NC3=O)c3ccccc3n2)CC1 [sotrastaurin]
Summary of the method: as §1

[3] = compound: CN1CC[C@H](c2c(O)cc(O)c3c(=O)cc(-c4ccccc4Cl)oc23)[C@H](O)C1 [alvocidib]
Summary of the method: as §1

[4] = compound: CN1CCc2c(c3ccccc3n2Cc2ccc(C(=O)NO)cc2)C1 [Tubastatin A]
Summary of the method: as §1

[5] = compound: CNC(=O)C1=CC=CC=C1NC2=NC(=NC=C2Cl)NC3=C(C=C(C=C3)N4CCOCC4)OC
Summary of the method: as §1

[6] = compound: CNC(=O)c1ccc(Nc2ncc(C(F)(F)F)c(NCc3nccnc3N(C)S(C)(=O)=O)n2)cc1 [defactinib]
Summary of the method: as §1

[7] = compound: CNCc1ccc(-c2[nH]c3cc(F)cc4c3c2CCNC4=O)cc1 [rucaparib]
Summary of the method: as §1

[8] = compound: CNc1nc(-c2ccc3c(N)n[nH]c3c2)cc(N2C[C@@H](C(=O)NC3CCCCC3)CC[C@H]2C)n1
Summary of the method: as §1

[9] = compound: COC(=O)N[C@@H](C)CNc1nccc(-c2cn(C(C)C)nc2-c2cc(Cl)cc(NS(C)(=O)=O)c2F)n1 [encorafenib]
Summary of the method: as §1

[10] = compound: COC(=O)[C@H](CCSC)NC(=O)C1=C(C=C(C=C1)NC[C@H](CS)N)C2=CC=CC=C2
Summary of the method: as §1

[11] = compound: COC1=CC=C(C=C1)CN2C=CC3=C2C=C(C=C3)C(=O)NO
Summary of the method: as §1

[12] = compound: CON(C)C(=O)N1N=C(c2cc(F)ccc2F)S[C@@]1(CCCN)c1ccccc1 [filanesib]
Summary of the method: as §1

[13] = compound: CO[C@H]1C[C@@H]2CC[C@@H](C)[C@@](O)(O2)C(=O)C(=O)N2CCCC[C@H]2C(=O)O[C@H]([C@H](C)C[C@@H]2CC[C@H](n3cnnn3)[C@H](OC)C2)CC(=O)[C@H](C)/C=C(\C)[C@@H](O)[C@@H](OC)C(=O)[C@H](C)C[C@H](C)/C=C/C=C/C=C/1C [zotarolimus]
Summary of the method: as §1

[14] = compound: COc1cc(C(=O)O)ccc1NC(=O)[C@@H]1N[C@@H](CC(C)(C)C)[C@](C#N)(c2ccc(Cl)cc2F)[C@H]1c1cccc(Cl)c1F [idasanutlin]
Summary of the method: as §1

[15] = compound: COc1cc(Nc2ncc3c(n2)-c2ccc(Cl)cc2C(c2c(F)cccc2OC)=NC3)ccc1C(=O)O [alisertib]
Summary of the method: as §1

[16] = compound: COc1cc2ncnc(Nc3ccc(F)c(Cl)c3)c2cc1OCCCN1CCOCC1 [gefitinib]
Summary of the method: as §1

[17] = compound: COc1cccc2cc(-c3nc([C@H]4CC[C@H](C(=O)O)CC4)n4ncnc(N)c34)[nH]c12
Summary of the method: as §1

[18] = compound: CS(=O)(=O)N1CCN(Cc2cc3nc(-c4cccc5[nH]ncc45)nc(N4CCOCC4)c3s2)CC1 [pictilisib]
Summary of the method: as §1

[19] = compound: COc1cc2nc(-c3cc(F)ccc3O)nc(N[C@@H]3CNC[C@H]3C(C)(C)O)c2cc1OC
Summary of the method: as §1

[20] = compound: CS(=O)(=O)CCNCc1ccc(-c2ccc3ncnc(Nc4ccc(OCc5cccc(F)c5)c(Cl)c4)c3c2)o1 [lapatinib]
Summary of the method: as §1

Measured: log2 fold change

AHCTF1 isoform 2 (UniProt Q8WYP5)
inactive: [1] 0.116 | [2] 0.069 | [3] -0.045 | [4] -0.03 | [5] 0.069 | [6] -0.18 | [7] 0.314 | [8] 0.039 | [9] 0.132 | [10] -0.098 | [11] -0.036 | [12] -0.154 | [13] -0.034 | [14] 0.072 | [15] -0.107 | [16] 0.252 | [17] -0.043 | [18] -0.109

AKR1C2 (UniProt P52895)
inactive: [1] -0.108 | [2] -0.009 | [4] 0.111 | [5] 0.052 | [6] 0.146 | [7] 0.146 | [8] 0.047 | [9] 0.094 | [10] -0.06 | [12] 0.259 | [13] 0.097 | [14] -0.015 | [15] -0.012 | [19] -0.013 | [16] 0.044 | [17] -0.012 | [20] 0.068 | [18] 0.165
active: [11] 0.706

ALDOC (UniProt J3QKP5)
inactive: [1] -0.314 | [2] 0.228 | [3] 0.16 | [4] 0.003 | [6] 0.293 | [7] 0.391 | [8] -0.262 | [9] -0.353 | [10] 0.17 | [11] -0.498 | [12] 0.257 | [13] -0.127 | [14] 0.05 | [15] 0.282 | [19] 0.098 | [16] 0.011 | [17] 0.059 | [20] -0.505 | [18] 0.211

ALDH18A1 (UniProt P54886)
active: [20] -0.652
inactive: [1] -0.038 | [2] -0.178 | [4] -0.027 | [5] -0.065 | [6] -0.122 | [7] 0.001 | [8] -0.281 | [9] 0.098 | [10] -0.047 | [11] -0.024 | [12] -0.01 | [13] 0.045 | [14] -0.233 | [15] -0.09 | [19] 0.215 | [16] -0.18 | [17] 0.067 | [18] -0.101

ADD2 (UniProt P35612)
inactive: [1] 0.049 | [2] -0.004 | [4] -0.025 | [5] -0.033 | [6] -0.051 | [7] -0.012 | [8] 0.001 | [9] -0.025 | [10] -0.003 | [11] 0.047 | [12] 0.015 | [13] -0.011 | [14] 0.009 | [15] -0.081 | [19] 0.065 | [16] 0.003 | [17] 0.02 | [20] -0.026 | [18] 0.009

ALDH9A1 isoform 3 (UniProt P49189)
inactive: [1] -0.019 | [2] 0.01 | [4] -0.024 | [5] 0.05 | [6] -0.024 | [7] -0.054 | [8] -0.009 | [9] -0.016 | [10] -0.005 | [11] -0.006 | [12] -0.04 | [13] 0.001 | [14] -0.006 | [15] 0.017 | [19] -0.01 | [16] -0.028 | [17] 0.041 | [20] -0.007 | [18] -0.002

AIP (UniProt O00170)
inactive: [1] 0.009 | [2] -0.038 | [4] 0.034 | [5] 0.028 | [6] -0.068 | [7] -0.015 | [8] -0.046 | [9] 0.065 | [10] -0.025 | [11] 0.06 | [12] -0.041 | [13] 0.021 | [14] -0.019 | [15] -0.046 | [19] 0.054 | [16] -0.002 | [17] -0.019 | [20] -0.019 | [18] 0.015

ALDH6A1 (UniProt Q02252)
inactive: [1] 0.031 | [2] 0.144 | [4] 0.03 | [5] 0.021 | [6] -0.021 | [7] 0.021 | [8] -0.045 | [9] 0.024 | [10] -0.008 | [11] -0.128 | [12] -0.025 | [13] 0.024 | [14] -0.032 | [15] -0.09 | [19] 0.029 | [16] 0.04 | [17] 0.066 | [20] 0.02 | [18] 0.063

AGO1 (UniProt Q9UL18)
inactive: [1] -0.066 | [2] -0.307 | [4] -0.164 | [5] -0.039 | [6] -0.03 | [7] 0.16 | [8] -0.085 | [9] 0.086 | [10] -0.036 | [11] -0.107 | [12] -0.015 | [13] -0.069 | [14] 0.009 | [15] 0.05 | [19] -0.031 | [16] -0.119 | [17] -0.029 | [20] 0.061 | [18] -0.002

AFG1L (UniProt Q8WV93)
inactive: [1] -0.038 | [2] -0.075 | [4] -0.204 | [5] -0.011 | [6] -0.131 | [7] -0.057 | [8] 0.002 | [9] 0.025 | [10] 0.088 | [11] -0.17 | [12] -0.239 | [13] 0.018 | [14] 0.016 | [15] -0.065 | [19] -0.18 | [16] -0.012 | [17] 0.107 | [20] 0.041

ALKBH8 isoform 4 (UniProt Q96BT7)
inactive: [1] -0.247 | [2] 0.031 | [3] -0.077 | [7] 0.244 | [8] 0.079 | [9] 0.069 | [11] -0.035 | [12] 0.053 | [13] -0.11 | [15] 0.049 | [17] 0.046 | [18] 0.124

AKT2 (UniProt P31751)
inactive: [1] -0.012 | [2] -0.068 | [4] 0.01 | [5] 0.042 | [6] -0.009 | [7] -0.058 | [8] -0.102 | [9] 0.015 | [10] 0.013 | [11] 0.008 | [12] -0.056 | [13] -0.01 | [14] -0.121 | [15] -0.041 | [19] 0.008 | [16] -0.012 | [17] -0.231 | [20] 0.04 | [18] 0.044

AKT1 (UniProt P31749)
inactive: [1] -0.163 | [2] -0.25 | [4] 0.111 | [5] 0.317 | [6] -0.062 | [7] 0.038 | [8] -0.24 | [9] -0.003 | [10] -0.025 | [11] -0.001 | [12] 0.001 | [13] 0.059 | [14] -0.134 | [15] -0.07 | [19] 0.1 | [16] 0.025 | [17] -0.224 | [20] 0.135 | [18] 0.216

AGRN (UniProt O00468)
inactive: [1] 0.062 | [2] 0.065 | [4] -0.01 | [5] 0 | [6] -0.119 | [7] 0.032 | [8] -0.164 | [9] 0.034 | [10] 0.014 | [11] -0.068 | [12] 0.014 | [13] -0.001 | [14] -0.005 | [15] -0.043 | [19] -0.071 | [16] 0.118 | [17] 0.037 | [20] 0.018 | [18] 0.055

ADD3 (UniProt Q9UEY8)
inactive: [1] 0.032 | [2] -0.087 | [4] -0.02 | [5] -0.005 | [6] -0.018 | [7] -0.013 | [8] -0.039 | [9] -0.003 | [10] 0.045 | [11] 0.018 | [12] 0.059 | [13] -0.074 | [14] 0.02 | [15] -0.063 | [19] 0.057 | [16] 0.021 | [17] 0.063 | [20] -0.006 | [18] 0.075

ADK (UniProt P55263)
inactive: [1] 0.158 | [2] 0.26 | [4] -0.007 | [5] 0.119 | [6] 0.055 | [7] -0.021 | [8] -0.017 | [9] -0.044 | [10] 0.002 | [11] -0.009 | [12] -0.013 | [13] -0.014 | [14] -0.083 | [15] -0.037 | [19] 0.015 | [16] 0.199 | [17] 0.007 | [20] 0.21 | [18] 0.167

AFDN isoform 5 (UniProt P55196)
inactive: [1] -0.034 | [2] -0.032 | [4] 0.025 | [5] -0.043 | [6] -0.115 | [7] 0.023 | [8] 0.035 | [9] 0.077 | [10] -0.033 | [11] 0.131 | [12] 0.014 | [13] 0.013 | [14] -0.06 | [15] 0 | [19] 0.034 | [16] -0.017 | [17] -0.009 | [20] -0.026 | [18] -0.009
